Results are given in words; binding and its absence hold for the method and conditions named. Some binding calls cover weakened binding; strength is not graded here. Sequences can lack the tags named with a protein.
Biological target: T1, GST-SKIP^43–79 (human) (UniProt Q13573)
T1 sequence: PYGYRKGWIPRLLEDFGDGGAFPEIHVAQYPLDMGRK
Assay: pull-down; GST or GST-SKIP43-79 on glutathione-sepharose beads; 50 µg purified PPIL1 with 20 µl beads, 2 h at 4°C; washed with TET-150 (150 mM NaCl, 0.1% Triton X-100) or TET-1000 (1 M NaCl); SDS-PAGE, Coomassie; both purified

binding: binds
B1: PPIL1 protein (purified, GST tag cleaved) (enzyme, UniProt Q9Y3C6 1-166)
chain: MAAIPPDSWQPPNVYLETSMGIIVLELYWKHAPKTCKNFAELARRGYYNGTKFHRIIKDFMIQGGDPTGTGRGGASIYGKQFEDELHPDLKFTGAGILAMANAGPDTNGSQFFVTLAPTQWLDGKHTIFGRVCQGIGMVNRVGMVETNSQDRPVDDVKIIKAYPSG
